Assay [1] has as its target T1, RNF41 C34S/H36Q MAPPIT bait (UniProt Q9H4P4).
T1 sequence: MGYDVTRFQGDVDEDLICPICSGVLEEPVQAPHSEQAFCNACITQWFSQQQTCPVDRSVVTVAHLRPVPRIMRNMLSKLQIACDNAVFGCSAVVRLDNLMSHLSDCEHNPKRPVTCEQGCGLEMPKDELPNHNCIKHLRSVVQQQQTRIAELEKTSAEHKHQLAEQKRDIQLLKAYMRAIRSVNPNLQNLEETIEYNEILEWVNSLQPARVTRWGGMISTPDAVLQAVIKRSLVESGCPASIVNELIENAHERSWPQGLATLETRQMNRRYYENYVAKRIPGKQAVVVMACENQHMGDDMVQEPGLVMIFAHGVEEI
Nature of the assay: two-hybrid; Array MAPPIT (mammalian two-hybrid in intact cells): RNF41 C34S/H36Q bait screened against 8,569 full length human ORF preys; luciferase read-out.

Sequences of proteins named here, by UniProt entry; tags and fusion partners are left off.
UniProt Q7LBC6: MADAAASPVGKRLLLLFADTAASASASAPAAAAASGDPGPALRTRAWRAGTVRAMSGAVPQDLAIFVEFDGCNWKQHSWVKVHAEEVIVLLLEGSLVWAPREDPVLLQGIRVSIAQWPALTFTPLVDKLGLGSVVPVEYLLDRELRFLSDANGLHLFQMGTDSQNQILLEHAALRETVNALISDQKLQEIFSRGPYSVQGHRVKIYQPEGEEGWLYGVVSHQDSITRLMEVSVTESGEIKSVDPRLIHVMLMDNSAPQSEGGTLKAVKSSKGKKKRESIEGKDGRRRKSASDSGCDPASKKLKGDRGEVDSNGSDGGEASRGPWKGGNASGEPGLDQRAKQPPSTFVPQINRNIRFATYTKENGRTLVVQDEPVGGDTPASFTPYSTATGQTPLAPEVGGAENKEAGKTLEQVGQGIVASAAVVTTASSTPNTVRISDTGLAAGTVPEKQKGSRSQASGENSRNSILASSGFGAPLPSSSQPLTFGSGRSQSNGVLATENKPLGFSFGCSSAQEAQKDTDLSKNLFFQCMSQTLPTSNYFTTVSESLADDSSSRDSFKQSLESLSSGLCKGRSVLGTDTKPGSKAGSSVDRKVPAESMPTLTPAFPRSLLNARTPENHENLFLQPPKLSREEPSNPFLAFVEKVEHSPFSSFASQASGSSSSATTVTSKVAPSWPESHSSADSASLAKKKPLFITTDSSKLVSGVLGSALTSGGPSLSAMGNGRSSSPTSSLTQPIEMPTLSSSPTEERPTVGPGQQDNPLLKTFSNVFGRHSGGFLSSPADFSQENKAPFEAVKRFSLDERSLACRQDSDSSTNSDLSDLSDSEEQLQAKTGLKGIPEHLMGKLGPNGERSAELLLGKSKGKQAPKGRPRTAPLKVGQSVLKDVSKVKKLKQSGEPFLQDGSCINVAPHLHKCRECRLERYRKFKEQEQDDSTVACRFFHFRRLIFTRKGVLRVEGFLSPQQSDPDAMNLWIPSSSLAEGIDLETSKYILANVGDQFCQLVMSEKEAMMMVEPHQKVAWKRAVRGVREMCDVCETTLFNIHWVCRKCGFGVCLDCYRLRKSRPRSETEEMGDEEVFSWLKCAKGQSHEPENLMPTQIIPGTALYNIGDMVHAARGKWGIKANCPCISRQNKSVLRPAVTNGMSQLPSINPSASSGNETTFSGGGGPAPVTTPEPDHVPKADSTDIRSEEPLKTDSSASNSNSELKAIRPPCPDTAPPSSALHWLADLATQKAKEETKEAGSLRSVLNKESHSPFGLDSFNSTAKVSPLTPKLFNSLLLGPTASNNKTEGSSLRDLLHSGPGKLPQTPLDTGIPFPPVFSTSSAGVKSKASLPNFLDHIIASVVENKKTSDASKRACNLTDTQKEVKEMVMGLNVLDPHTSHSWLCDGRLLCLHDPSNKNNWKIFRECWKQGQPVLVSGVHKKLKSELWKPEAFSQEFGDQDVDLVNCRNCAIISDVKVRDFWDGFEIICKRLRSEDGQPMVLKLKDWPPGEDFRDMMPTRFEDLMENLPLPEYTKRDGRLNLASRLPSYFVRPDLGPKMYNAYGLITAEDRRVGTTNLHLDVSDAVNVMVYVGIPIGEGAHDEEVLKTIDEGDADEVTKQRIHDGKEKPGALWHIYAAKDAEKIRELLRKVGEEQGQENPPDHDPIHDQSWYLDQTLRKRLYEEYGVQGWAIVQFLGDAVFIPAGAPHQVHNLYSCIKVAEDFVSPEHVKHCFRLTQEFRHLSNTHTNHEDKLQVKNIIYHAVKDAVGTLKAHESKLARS

The target in assay [2] is T2, RNF41 L163Q mutant MAPPIT bait (UniProt Q9H4P4).
T2 sequence: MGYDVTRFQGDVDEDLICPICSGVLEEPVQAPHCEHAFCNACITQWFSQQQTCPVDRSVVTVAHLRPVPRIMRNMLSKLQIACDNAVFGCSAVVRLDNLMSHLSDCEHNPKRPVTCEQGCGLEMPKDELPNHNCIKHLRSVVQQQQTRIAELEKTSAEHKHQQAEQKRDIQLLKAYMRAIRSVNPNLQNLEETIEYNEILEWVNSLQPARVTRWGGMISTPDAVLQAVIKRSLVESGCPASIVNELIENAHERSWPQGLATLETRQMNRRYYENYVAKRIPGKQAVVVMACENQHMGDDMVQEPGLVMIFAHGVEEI
The assay is described as follows: two-hybrid; binary MAPPIT in HEK293T cells: bait, prey and pXP2d2-rPAP1-luciferase reporter co-transfected, 24 h Epo (5 ng/ml) or untreated; fold induction relative to a JAK2 binding prey. For orientation: In a reporter assay the amount or activity of a reporter protein is the signal.

For assay [3], the target named is T3, RNF41 wild type MAPPIT bait (UniProt Q9H4P4).
T3 sequence: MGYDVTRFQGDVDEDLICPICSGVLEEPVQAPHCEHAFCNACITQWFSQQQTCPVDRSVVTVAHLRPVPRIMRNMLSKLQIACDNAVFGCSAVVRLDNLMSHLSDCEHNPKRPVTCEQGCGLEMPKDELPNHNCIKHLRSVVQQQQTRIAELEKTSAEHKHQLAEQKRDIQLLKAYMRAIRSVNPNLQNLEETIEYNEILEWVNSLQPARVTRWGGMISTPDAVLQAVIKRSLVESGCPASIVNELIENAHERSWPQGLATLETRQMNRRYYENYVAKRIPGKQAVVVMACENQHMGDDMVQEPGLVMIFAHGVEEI
The description is as above.

The target of assay [4] is T4, Flag-tagged RNF41 (wild type) (UniProt Q9H4P4).
T4 sequence: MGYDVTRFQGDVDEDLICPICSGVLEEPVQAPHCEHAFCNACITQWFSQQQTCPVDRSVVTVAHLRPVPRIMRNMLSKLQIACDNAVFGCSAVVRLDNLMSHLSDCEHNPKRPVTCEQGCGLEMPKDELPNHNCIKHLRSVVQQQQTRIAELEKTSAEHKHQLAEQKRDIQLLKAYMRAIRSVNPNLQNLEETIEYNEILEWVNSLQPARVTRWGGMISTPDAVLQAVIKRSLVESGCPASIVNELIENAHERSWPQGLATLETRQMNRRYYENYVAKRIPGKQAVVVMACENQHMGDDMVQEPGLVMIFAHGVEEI
Nature of the assay: AlphaScreen or HTRF; AlphaScreen on lysates of HEK293T cells co-transfected with an E-tagged and a Flag-tagged protein together with a third protein or soluble IL5Rα (mock). (In general: Bead proximity is the source of the signal in Alpha formats.)

For assay [5], the target named is T4, Flag-tagged RNF41 (wild type). Nature of the assay: AlphaScreen or HTRF; AlphaScreen on lysates of HEK293T cells co-transfected with an E-tagged and a Flag-tagged protein; biotinylated anti-E-tag antibody, FLAG (M2) acceptor beads, streptavidin donor beads; TAP lysis buffer.
Assay [6] addresses T5, Flag-tagged RNF41 L163Q (UniProt Q9H4P4).
T5 sequence: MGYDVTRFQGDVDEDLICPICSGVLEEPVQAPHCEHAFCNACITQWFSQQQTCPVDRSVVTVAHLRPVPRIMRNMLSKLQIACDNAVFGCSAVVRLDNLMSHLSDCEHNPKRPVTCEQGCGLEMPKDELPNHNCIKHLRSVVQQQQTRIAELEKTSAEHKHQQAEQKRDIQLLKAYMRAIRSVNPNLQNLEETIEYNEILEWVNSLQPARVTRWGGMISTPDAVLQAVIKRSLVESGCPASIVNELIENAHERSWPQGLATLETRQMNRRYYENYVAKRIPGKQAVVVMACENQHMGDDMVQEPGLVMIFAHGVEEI
The description is as above.

For assay [7], the target named is T4, Flag-tagged RNF41 (wild type). Nature of the assay: co-IP; HEK293T cells co-transfected with an E-tagged and a Flag-tagged protein; anti-Flag M2 agarose, elution with Flag peptide, blot with anti-Etag and anti-Flag.
Assay [8] deals with T5, Flag-tagged RNF41 L163Q. The assay is described as above.
The target in assay [9] is T6, Flag-tagged VPS52 (wild type) (UniProt Q8N1B4).
T6 sequence: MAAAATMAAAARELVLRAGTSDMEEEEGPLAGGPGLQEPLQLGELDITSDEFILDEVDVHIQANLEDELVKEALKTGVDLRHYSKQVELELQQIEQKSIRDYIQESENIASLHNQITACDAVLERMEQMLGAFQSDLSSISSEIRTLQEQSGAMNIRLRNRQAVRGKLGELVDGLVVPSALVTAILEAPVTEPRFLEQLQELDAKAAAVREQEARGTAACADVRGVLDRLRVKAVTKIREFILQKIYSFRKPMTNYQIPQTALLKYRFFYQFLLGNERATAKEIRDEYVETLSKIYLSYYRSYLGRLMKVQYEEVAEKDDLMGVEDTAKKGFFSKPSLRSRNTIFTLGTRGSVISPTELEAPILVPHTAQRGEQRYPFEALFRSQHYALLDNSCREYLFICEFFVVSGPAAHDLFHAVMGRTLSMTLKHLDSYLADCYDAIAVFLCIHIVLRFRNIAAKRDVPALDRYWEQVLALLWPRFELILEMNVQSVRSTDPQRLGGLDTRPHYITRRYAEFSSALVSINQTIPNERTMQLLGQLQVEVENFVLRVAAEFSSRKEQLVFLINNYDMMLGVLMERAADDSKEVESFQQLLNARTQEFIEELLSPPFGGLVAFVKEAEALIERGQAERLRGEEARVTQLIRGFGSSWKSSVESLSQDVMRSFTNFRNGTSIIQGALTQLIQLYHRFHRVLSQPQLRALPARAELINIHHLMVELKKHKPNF
Nature of the assay: AlphaScreen or HTRF; AlphaScreen on lysates of HEK293T cells co-transfected with an E-tagged and a Flag-tagged protein together with a third protein or soluble IL5Rα (mock).

Results are given in words; binding and its absence hold for the method and conditions named. For some of these results: Binding seen in cells or lysates may run through a third protein. Some binding calls cover weakened binding; strength is not graded here. For some of these results: Sequences can lack the tags named with a protein.

As to “KDM3B MAPPIT prey (from UniProt Q7LBC6 1-1761)”, the binding entry in assay [1] was “binds”.

B1: ASB6 MAPPIT prey (protein, UniProt Q9NWX5 1-421)
chain: MPFLHGFRRIIFEYQPLVDAILGSLGIQDPERQESLDRPSYVASEESRILVLTELLERKAHSPFYQEGVSNALLKMAELGLTRAADVLLRHGANLNFEDPVTYYTALHIAVLRNQPDMVELLVHHGADVNRRDRIHESSPLDLASEEPERLPCLQRLLDLGADVNAADKHGKTALLHALASSDGVQIHNTENIRLLLEGGADVKATTKDGDTVFTCIIFLLGETVGGDKEEAQMINRFCFQVTRLLLAHGADPSECPAHESLTHICLKSFKLHFPLLRFLLESGAAYNCSLHGASCWSGFHIIFERLCSHPGCTEDESHADLLRKAETVLDLMVTNSQKLQLPENFDIHPVGSLAEKIQALHFSLRQLESYPPPLKHLCRVAIRLYLQPWPVDVKVKALPLPDRLKWYLLSEHSGSVEDDI
B1: the binding entry in assay [1], in assay [2] and in assay [3] was “binds” in each case.

B2: USP8 MAPPIT prey (protein, UniProt P40818 1-1118)
chain: MPAVASVPKELYLSSSLKDLNKKTEVKPEKISTKSYVHSALKIFKTAEECRLDRDEERAYVLYMKYVTVYNLIKKRPDFKQQQDYFHSILGPGNIKKAVEEAERLSESLKLRYEEAEVRKKLEEKDRQEEAQRLQQKRQETGREDGGTLAKGSLENVLDSKDKTQKSNGEKNEKCETKEKGAITAKELYTMMTDKNISLIIMDARRMQDYQDSCILHSLSVPEEAISPGVTASWIEAHLPDDSKDTWKKRGNVEYVVLLDWFSSAKDLQIGTTLRSLKDALFKWESKTVLRNEPLVLEGGYENWLLCYPQYTTNAKVTPPPRRQNEEVSISLDFTYPSLEESIPSKPAAQTPPASIEVDENIELISGQNERMGPLNISTPVEPVAASKSDVSPIIQPVPSIKNVPQIDRTKKPAVKLPEEHRIKSESTNHEQQSPQSGKVIPDRSTKPVVFSPTLMLTDEEKARIHAETALLMEKNKQEKELRERQQEEQKEKLRKEEQEQKAKKKQEAEENEITEKQQKAKEEMEKKESEQAKKEDKETSAKRGKEITGVKRQSKSEHETSDAKKSVEDRGKRCPTPEIQKKSTGDVPHTSVTGDSGSGKPFKIKGQPESGILRTGTFREDTDDTERNKAQREPLTRARSEEMGRIVPGLPSGWAKFLDPITGTFRYYHSPTNTVHMYPPEMAPSSAPPSTPPTHKAKPQIPAERDREPSKLKRSYSSPDITQAIQEEEKRKPTVTPTVNRENKPTCYPKAEISRLSASQIRNLNPVFGGSGPALTGLRNLGNTCYMNSILQCLCNAPHLADYFNRNCYQDDINRSNLLGHKGEVAEEFGIIMKALWTGQYRYISPKDFKITIGKINDQFAGYSQQDSQELLLFLMDGLHEDLNKADNRKRYKEENNDHLDDFKAAEHAWQKHKQLNESIIVALFQGQFKSTVQCLTCHKKSRTFEAFMYLSLPLASTSKCTLQDCLRLFSKEEKLTDNNRFYCSHCRARRDSLKKIEIWKLPPVLLVHLKRFSYDGRWKQKLQTSVDFPLENLDLSQYVIGPKNNLKKYNLFSVSNHYGGLDGGHYTAYCKNAARQRWFKFDDHEVSDISVSSVKSSAAYILFYTSLGPRVTDVAT
As for B2, the binding entry in assay [2] and in assay [3] was “binds” each time.

B3: E-tagged RNF41 (wild type) (protein, UniProt Q9H4P4 1-317)
chain: MGYDVTRFQGDVDEDLICPICSGVLEEPVQAPHCEHAFCNACITQWFSQQQTCPVDRSVVTVAHLRPVPRIMRNMLSKLQIACDNAVFGCSAVVRLDNLMSHLSDCEHNPKRPVTCEQGCGLEMPKDELPNHNCIKHLRSVVQQQQTRIAELEKTSAEHKHQLAEQKRDIQLLKAYMRAIRSVNPNLQNLEETIEYNEILEWVNSLQPARVTRWGGMISTPDAVLQAVIKRSLVESGCPASIVNELIENAHERSWPQGLATLETRQMNRRYYENYVAKRIPGKQAVVVMACENQHMGDDMVQEPGLVMIFAHGVEEI
Regarding B3, the binding entry in assay [4], in [5], in assay [6], in assay [7] and in assay [8] was “binds” each time.

B4: E-tagged VPS52 (protein, UniProt Q8N1B4 1-723)
chain: MAAAATMAAAARELVLRAGTSDMEEEEGPLAGGPGLQEPLQLGELDITSDEFILDEVDVHIQANLEDELVKEALKTGVDLRHYSKQVELELQQIEQKSIRDYIQESENIASLHNQITACDAVLERMEQMLGAFQSDLSSISSEIRTLQEQSGAMNIRLRNRQAVRGKLGELVDGLVVPSALVTAILEAPVTEPRFLEQLQELDAKAAAVREQEARGTAACADVRGVLDRLRVKAVTKIREFILQKIYSFRKPMTNYQIPQTALLKYRFFYQFLLGNERATAKEIRDEYVETLSKIYLSYYRSYLGRLMKVQYEEVAEKDDLMGVEDTAKKGFFSKPSLRSRNTIFTLGTRGSVISPTELEAPILVPHTAQRGEQRYPFEALFRSQHYALLDNSCREYLFICEFFVVSGPAAHDLFHAVMGRTLSMTLKHLDSYLADCYDAIAVFLCIHIVLRFRNIAAKRDVPALDRYWEQVLALLWPRFELILEMNVQSVRSTDPQRLGGLDTRPHYITRRYAEFSSALVSINQTIPNERTMQLLGQLQVEVENFVLRVAAEFSSRKEQLVFLINNYDMMLGVLMERAADDSKEVESFQQLLNARTQEFIEELLSPPFGGLVAFVKEAEALIERGQAERLRGEEARVTQLIRGFGSSWKSSVESLSQDVMRSFTNFRNGTSIIQGALTQLIQLYHRFHRVLSQPQLRALPARAELINIHHLMVELKKHKPNF
In the case of B4, the binding result in assay [9] is “binds”.

B5: HOMER2 MAPPIT prey (protein, UniProt Q9NSB8 1-354)
chain: MGEQPIFTTRAHVFQIDPNTKKNWMPASKQAVTVSYFYDVTRNSYRIISVDGAKVIINSTITPNMTFTKTSQKFGQWADSRANTVFGLGFSSEQQLTKFAEKFQEVKEAAKIAKDKTQEKIETSSNHSQESGRETPSSTQASSVNGTDDEKASHAGPANTHLKSENDKLKIALTQSAANVKKWEIELQTLRESNARLTTALQESAASVEQWKRQFSICRDENDRLRNKIDELEEQCSEINREKEKNTQLKRRIEELEAELREKETELKDLRKQSEIIPQLMSECEYVSEKLEAAERDNQNLEDKVRSLKTDIEESKYRQRHLKVELKSFLEVLDGKIDDLHDFRRGLSKLGTDN
On to B5, for which, in [1], the binding result was “binds”.

The values above are taken from paper PMC5439944.
